Laboratory results as given in article PMC7196074.

The chains behind the UniProt entries cited, without tags or fusion partners.
UniProt Q9VHP0: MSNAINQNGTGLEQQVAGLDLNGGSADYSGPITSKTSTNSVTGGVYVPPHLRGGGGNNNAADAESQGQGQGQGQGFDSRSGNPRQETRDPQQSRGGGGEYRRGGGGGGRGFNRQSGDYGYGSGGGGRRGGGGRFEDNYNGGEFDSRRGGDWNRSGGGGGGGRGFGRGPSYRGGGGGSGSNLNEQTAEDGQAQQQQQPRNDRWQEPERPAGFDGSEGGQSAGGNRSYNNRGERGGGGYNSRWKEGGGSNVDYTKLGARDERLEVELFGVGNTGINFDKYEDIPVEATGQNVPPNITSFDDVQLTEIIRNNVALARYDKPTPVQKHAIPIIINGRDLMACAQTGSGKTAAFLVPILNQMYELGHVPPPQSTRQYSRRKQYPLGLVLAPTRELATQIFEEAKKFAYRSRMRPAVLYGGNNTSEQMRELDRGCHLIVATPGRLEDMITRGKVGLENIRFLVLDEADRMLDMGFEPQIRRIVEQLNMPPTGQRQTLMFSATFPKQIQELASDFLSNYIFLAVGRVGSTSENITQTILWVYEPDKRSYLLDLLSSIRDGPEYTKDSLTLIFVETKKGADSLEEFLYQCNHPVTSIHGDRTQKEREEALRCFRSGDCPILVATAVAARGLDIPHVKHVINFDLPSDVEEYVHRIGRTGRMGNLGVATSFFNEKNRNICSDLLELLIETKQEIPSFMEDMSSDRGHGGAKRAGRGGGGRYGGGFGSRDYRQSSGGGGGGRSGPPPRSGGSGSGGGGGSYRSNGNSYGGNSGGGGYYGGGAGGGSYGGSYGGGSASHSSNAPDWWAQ
UniProt P21187: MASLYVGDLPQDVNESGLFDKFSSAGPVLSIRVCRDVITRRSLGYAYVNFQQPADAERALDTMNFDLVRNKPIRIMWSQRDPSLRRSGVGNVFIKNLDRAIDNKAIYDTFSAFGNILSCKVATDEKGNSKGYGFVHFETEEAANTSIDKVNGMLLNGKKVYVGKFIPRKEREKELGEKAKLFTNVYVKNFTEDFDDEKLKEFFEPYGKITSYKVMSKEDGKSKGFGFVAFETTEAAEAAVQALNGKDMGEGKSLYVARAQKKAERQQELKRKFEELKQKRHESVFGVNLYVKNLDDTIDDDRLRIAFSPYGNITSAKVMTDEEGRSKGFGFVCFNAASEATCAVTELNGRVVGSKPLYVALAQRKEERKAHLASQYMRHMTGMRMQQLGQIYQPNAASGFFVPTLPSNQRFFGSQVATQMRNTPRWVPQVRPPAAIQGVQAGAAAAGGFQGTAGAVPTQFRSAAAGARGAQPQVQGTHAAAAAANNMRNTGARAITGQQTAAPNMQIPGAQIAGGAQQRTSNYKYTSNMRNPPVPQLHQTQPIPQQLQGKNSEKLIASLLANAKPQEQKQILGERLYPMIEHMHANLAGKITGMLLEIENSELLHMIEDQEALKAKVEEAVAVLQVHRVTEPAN
UniProt P25823: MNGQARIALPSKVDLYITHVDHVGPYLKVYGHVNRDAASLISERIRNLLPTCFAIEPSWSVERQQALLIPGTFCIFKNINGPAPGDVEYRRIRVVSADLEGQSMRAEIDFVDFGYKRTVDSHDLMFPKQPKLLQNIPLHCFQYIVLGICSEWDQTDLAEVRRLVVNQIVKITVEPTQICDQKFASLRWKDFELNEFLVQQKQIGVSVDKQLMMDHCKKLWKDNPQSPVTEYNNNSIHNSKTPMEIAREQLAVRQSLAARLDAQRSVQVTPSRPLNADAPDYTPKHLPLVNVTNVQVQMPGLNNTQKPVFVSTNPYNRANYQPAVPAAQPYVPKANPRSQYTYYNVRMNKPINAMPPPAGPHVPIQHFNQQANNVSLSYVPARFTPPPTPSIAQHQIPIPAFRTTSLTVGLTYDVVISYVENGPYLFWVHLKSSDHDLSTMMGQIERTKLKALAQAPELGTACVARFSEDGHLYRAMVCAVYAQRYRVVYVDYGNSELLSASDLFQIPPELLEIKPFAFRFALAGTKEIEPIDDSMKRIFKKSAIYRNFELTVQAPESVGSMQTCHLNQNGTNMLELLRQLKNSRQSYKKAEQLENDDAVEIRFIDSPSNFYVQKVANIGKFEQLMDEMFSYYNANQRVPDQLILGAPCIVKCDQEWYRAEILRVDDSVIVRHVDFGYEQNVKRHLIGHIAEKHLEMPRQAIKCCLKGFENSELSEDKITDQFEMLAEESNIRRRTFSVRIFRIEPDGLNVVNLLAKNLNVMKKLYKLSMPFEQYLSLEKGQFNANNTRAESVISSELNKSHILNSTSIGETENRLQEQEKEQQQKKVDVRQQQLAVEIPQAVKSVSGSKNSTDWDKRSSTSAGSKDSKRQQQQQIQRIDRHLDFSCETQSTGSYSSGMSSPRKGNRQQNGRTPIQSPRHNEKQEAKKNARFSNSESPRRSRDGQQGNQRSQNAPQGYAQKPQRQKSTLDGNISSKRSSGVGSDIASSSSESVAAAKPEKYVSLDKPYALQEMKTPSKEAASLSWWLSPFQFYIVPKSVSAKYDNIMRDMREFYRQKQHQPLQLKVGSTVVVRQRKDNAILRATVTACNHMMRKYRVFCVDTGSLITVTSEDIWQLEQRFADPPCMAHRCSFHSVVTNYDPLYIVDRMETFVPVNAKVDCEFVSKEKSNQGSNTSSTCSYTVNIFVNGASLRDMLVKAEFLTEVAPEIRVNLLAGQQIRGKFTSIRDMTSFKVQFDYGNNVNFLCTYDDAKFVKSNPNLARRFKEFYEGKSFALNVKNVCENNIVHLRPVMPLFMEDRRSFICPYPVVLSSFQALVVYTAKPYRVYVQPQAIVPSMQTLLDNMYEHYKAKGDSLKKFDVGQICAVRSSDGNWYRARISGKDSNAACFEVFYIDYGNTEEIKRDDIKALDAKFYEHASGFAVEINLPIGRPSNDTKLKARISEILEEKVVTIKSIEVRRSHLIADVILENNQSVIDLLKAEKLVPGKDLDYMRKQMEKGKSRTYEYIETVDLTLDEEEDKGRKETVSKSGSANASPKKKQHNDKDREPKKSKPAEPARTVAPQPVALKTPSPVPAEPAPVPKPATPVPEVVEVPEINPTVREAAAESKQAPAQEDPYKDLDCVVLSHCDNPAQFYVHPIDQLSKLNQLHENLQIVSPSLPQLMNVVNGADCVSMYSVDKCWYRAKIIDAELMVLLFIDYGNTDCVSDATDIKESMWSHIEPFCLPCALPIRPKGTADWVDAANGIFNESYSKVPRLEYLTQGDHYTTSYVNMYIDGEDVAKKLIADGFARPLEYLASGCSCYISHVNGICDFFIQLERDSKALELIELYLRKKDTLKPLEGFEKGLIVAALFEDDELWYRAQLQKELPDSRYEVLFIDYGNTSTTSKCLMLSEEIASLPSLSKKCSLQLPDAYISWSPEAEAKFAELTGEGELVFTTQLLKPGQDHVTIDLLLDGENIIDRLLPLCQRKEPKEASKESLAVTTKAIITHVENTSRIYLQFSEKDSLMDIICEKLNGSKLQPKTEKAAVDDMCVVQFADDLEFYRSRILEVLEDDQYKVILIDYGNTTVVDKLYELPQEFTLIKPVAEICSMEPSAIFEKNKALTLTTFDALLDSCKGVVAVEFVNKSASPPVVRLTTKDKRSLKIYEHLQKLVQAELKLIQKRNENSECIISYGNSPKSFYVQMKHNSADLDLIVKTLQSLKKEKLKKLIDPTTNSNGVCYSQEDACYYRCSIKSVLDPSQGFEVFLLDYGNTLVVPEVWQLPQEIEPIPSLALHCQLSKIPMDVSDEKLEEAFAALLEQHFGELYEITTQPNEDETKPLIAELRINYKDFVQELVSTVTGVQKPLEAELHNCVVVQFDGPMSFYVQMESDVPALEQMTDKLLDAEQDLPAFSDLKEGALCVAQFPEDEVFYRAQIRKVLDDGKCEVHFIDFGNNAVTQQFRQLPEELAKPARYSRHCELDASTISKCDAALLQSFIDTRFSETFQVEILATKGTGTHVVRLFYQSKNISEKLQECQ

T1: GFP-Aub (Aubergine) (Drosophila) (UniProt O76922)
T1 sequence: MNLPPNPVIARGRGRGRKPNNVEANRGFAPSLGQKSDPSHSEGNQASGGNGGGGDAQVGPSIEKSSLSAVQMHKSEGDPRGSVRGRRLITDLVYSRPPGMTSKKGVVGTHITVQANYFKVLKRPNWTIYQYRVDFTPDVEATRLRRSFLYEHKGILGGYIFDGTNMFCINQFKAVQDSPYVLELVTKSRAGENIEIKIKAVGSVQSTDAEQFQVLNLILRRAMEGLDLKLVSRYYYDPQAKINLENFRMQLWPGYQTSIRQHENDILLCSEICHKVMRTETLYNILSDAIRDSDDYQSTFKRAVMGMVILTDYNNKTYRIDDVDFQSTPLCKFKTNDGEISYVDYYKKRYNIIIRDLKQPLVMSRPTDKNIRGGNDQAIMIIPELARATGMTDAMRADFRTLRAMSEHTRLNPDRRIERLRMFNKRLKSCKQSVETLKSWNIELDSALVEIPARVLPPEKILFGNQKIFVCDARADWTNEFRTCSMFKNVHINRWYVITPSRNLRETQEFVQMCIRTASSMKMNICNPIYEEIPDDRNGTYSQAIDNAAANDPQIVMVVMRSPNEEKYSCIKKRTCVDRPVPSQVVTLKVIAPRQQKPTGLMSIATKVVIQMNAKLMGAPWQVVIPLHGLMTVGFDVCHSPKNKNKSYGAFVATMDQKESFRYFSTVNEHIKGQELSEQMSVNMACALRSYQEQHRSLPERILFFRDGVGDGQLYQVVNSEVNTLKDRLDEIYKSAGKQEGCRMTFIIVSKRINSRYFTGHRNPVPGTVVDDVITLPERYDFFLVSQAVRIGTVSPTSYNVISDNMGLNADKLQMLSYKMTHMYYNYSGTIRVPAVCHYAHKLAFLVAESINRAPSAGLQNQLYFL


Target: T1, GFP-Aub (Aubergine) (Drosophila)
Assay: affinity purification with mass spectrometry; GFP-Aub precipitated on GFP-trap beads from lysates of 0-2 h embryos (UASp-GFP-Aub nos-Gal4; also osk^54 mutant embryos), DXB buffer with 150 mM NaCl, Triton X-100 and RNasin, overnight at 4 °C; embryos expressing GFP alone as control

| Molecule | binding |
| --- | --- |
| Belle (Bel) (from UniProt Q9VHP0 1-798) | binds |
| eIF3d, endogenous (Drosophila (endogenous in 0-2 h embryos)) | binds |
| eIF4E, endogenous (Drosophila (endogenous in 0-2 h embryos)) | binds |
| poly(A)-binding protein (PABP), endogenous (from UniProt P21187 1-634) | binds |
| Cup (protein, UniProt Q9VMA3 1-1117) MQMAEAEQENGAGALKIATNAGATDRPAHQQLPLPVEDQQDEVLTPAEKGKFEYPPPPPPPTPVQAPLATKATALNASQEHDDDEANSEKWEDPCAPPPPPPLPTSAFLATGLGYLKLPAFKLKDALEKAITKLEANKRTLKASPESSRSIKNKNVVALEMLPRRSNPETIGDGSMLASTSTAVMLQTKKPAVIVEMERRCKIINLLAKQNQILESISGEAIPMHGPSKHLHEDEGLTLQVLSARASTPYTQPSSMLSCTAVSCDLEHDSPRKQVASKEAVPEQQSSQVQQKRPPSTGIHKPGSLRAPKAVRPTTAPVVSSKPVKSYTRSRLMDIRNGMFNALMHRSKESFVMPRIATCDDIELEGRLRRMNIWRTSDGTRFRTRSTTANLNMNNNNNNECMPAFFKNKNKPNLISDESIIQSQPPQPQTEFQDPAIVNQRRIGSGRLNHSKWGYNDEDYHSYHNGKSQHMEEVNSKNSKNMTVLQFFDNGEISSQPQRRPNTPVMGMSINRSENDTLHSNESSEDLSRANENYVKRVMSGFLVVSKPKSRDVEDRHHRRYRNQNEEPEWFSCGPTSRLDTIELCGFDEDEEKMLKEGNKNHGLGETERETSKQKMDHKYKWTHAEPMGRSKYMPKHDTNNNHNVENMNNVMATEHQQQKEEKRPGSGRSFQFDKFNQSQQNYESSSYVNHQQPPQTQPQQMQQQSNTNTNNSKFMSFFANEGNSSSSSLNEFFKQAINQGHGNNPEQPKSLGHIGQMPSVDQLEAKWRRNSLNNVGETANKQTDNFQKLIGSLSSAKPQSQAVGYDAISNFIMQQQQYQQQQQKQHLIIQQQQQHTAFLASLQLKAILGRADTQLLLLRLTKGEISKHGLLVQLANPRLTDMDREAITAVLQFTNTQQQQQQHKQQLDMLSSTVIASQLQNLHNLAIVQQTLAARQQPQHNPQTQAPHQLSQEDLQAHANVIMRNAVMKRKIEEQTSKLINGGAKHQAQQQYLNRGQQRQARPDANSNALLHALISGGGNNHASGYPMNGQPQKHHSNLRFGDNQNFQSFESNQPHFATQYKQQYQQSQQQHPHQQPQQLNSLHQNNAGAVNSFNKAQMQAQSAISMLPNSGDEFH | binds |
| Capsuleen/PRMT5 (Csul) (enzyme, UniProt Q9U6Y9 1-610) MNYYVCLHQEGVNSIPKLIEKAFANNYNVVSTSINANMLPFEPHESDPTYPATILSGSDWNSKVIFTMSDVNVDSPNDKLREHAKEVFMRDVAWAEHLQNVGNLMVRLRGPENENLASIVLAKTKDDFPSGNWFIQVPITNPELATFEHRKDATAEEVAEAESNDPWNWWNNLRMVTKHSTKVKVVIELNDADRPSKETVRRWLGEPIEAIIIPSSLFVRNRSNYCVLKKEWQLIVGHFISVRANIIISTNPNDKALCQYADYVNKLINDNCDKHMLNSYENMLEIPLQPLCDNLDTYTYEVFETDPVKYKLYQDAVQAALLDRVSAAEAKTKLTVVMLLGGGRGPLARAVFNAAELTKRKVRLYIIEKNPNAIRTLSNMVKTLWADKDVHIFSKDMRDFSPPELADIMVSELLGSFGDNELSPECLDGALKLLKPDGISIPYKSTSYINPLMSAVLHQNVCQLLPTYPAFDYGYVSLLKNIYHIDEPQALFEFVHPNRAENIDNTRCKTVSFKVNKDCVLHGIGGYFDTHLYKDICLSINPLTHTPGMFSWFPMFFATRPRTLREGQTISIQFWRCVDATKVWYEWQVVNSPDDWEHHNTRGTGYNMRL | binds |

Results, then the molecule that gave them:

| binding | Molecule |
| --- | --- |
| binds | Tudor (Tud) (from UniProt P25823 1-2515) |
| binds | eIF3b, endogenous (protein, UniProt Q0E940 1-690) MAKKKSEEHSGTDANDSDYQEEPNFDDPPGFVDNISDEDLLGDMLAQRPSEADGVESVVVVDNIPKVEPVRLEKLKLVINKLFSNYGEIVNVVYPVDEEGKTKGYAFMEYKQARQAEEAVKKLNNHRLDKNHTFAVNLFTDFQKYENIPEKWEPPTVQTFKVQSDLYNFINDPDTYDQYCVAAETAPNCVQVGFWQNVLPEPFELETRERFTDTFVKWSPLGTYVVTFHKPGVAIWGGSSFQKIQKFPHPGTQFVEFSPCENYLVTYGPTPTGQKIIIWDIRTGAEKRSFVADGMSVLSMFRWSHDDKFVARMGENSIHIYETPSFYLLDLKSIKIPGIRGFSWSPTDNVIAYWVEEQNQIPARVTLMEIPKKREIRNKNLFHVADCKLHWQKSGDYLCVKVDRYSKLKKDKKDLDVKFLGMFYNFEIFHMREKEIPVDSVEIRELILAFAWEPVGNKFSIIHGETNSSNVSFYEVNKGVKPSLVKRLEKKSCTHLFWSPRGQFIVMANLTMGTFEFVDSTNDYIITASPDHFRASEVEWDPTGRYVVTGVSSWKVKEDTGFNMYTFQGRIIKRTILKNFVQFLWRPRPPTLLSEEKQKEIKKNLKKYYAAFEQKDRLRLTRASKELLEKRSQLRETFMEYRNKRIAEWAEQKSRRIMLRGHVDTDNLETDEVDEEIVEFLVKEEVTLLE |

These are yes or no findings as the source states them, for the method shown. In cells and extracts the contact can be indirect. These calls come from enrichment with a bait or labelling near it, and not all partners need be listed. Sequences can lack the tags named with a protein.
